# Laboratory results from PubChem BioAssay AID493014 (National Center for Advancing Translational Sciences (NCATS), 2011).
# The other results are listed elsewhere or left out. These are further read-outs of the screen, such as a control signal, another cell line or another target. No call is given for them. Most of these compounds were active or inconclusive in the main read-out, so they are no random draw. The note in brackets gives the kind of curve behind each potency; many fits are weak.
# Test: qHTS Assay to Find Inhibitors of Chronic Active B-Cell Receptor Signaling
# Conditions: ABC-DLBCL IkBa-CBG/CBR reporter, luminescence ratio (green luciferase fused to IkBa over red control in TMD8 lymphoma cells), 4 h
# How it was run: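 TMD8 human ABC-DLBCL cells with doxycycline-inducible IκBα–green luciferase fusion and unfused red luciferase, in 0.5% FBS medium; compounds up to 46 uM, 4 h at 37C. Green/red luminescence ratio, filter-overlap corrected, fitted to concentration-response curves.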
# [1] = measured here: CBR red luminescence, cell number
smiles,measurement,setting,value
COCCNC(=S)N/N=C(\C)c1cccc([N+](=O)[O-])c1,AC50,measured here: IkBa-CBG green luminescence,"18.4 µM [falling, partial curve, poor fit]"
CCCCCCCNC(=O)C1(CC2CC(c3ccccc3)=NO2)CCN(C(=O)OC(C)(C)C)CC1 (stereo not drawn),AC50,[1],"1.3 µM [rising, full curve]"
O=C(/C=C/c1ccc(Cl)cc1)c1cccnc1,AC50,[1],"7.31 µM [falling, single point]"
Cc1cc(Oc2ncccc2[N+](=O)[O-])c2cc(Cl)ccc2n1,AC50,[1],"11.2 µM [falling, single point]"
O=C(Nc1ccc2c(c1)N(S(=O)(=O)c1cccs1)CCC2)c1c(F)cccc1Cl,AC50,[1],"4.11 µM [rising, partial curve]"
COc1cc(-c2nc(-c3ccncc3)no2)cc(OC)c1OC,AC50,[1],"1.84 µM [rising, full curve, poor fit]"
O=C(N1CCCC1)N1CCN(c2ncnc3c(-c4ccc(Cl)cc4)nsc23)CC1,AC50,[1],"10 µM [rising, partial curve, poor fit]"
COC(=O)C1=C(N)Oc2cc(C)n(CCN3CCOCC3)c(=O)c2C1c1cccnc1 (stereo not drawn),AC50,[1],"2.82 µM [rising, full curve, poor fit]"
CCOC(=O)c1c(NC(=O)CN2C(=O)NC3(CCCCC3C)C2=O)sc(C)c1C (stereo not drawn),AC50,[1],"2.31 µM [falling, single point]"
C=CCn1c(SCc2c(C(=O)OC)sc(N)c2C(=O)OC)nnc1-c1ccc(Cl)cc1,AC50,[1],"20.6 µM [falling, single point]"
COc1ccc(C(=O)C2CCCN(Cc3cccn3-c3ccccn3)C2)c(C)c1 (stereo not drawn),AC50,[1],"35.5 µM [falling, single point]"
Cn1cccc1C(=O)OCC(=O)Nc1ccc2c(c1)OCCO2,AC50,[1],"29.1 µM [rising, single point]"
COC(=O)[C@H](CCSC)NC(=O)c1cccnc1SC,AC50,[1],"5.62 µM [rising, partial curve]"
CCC/C(O)=C1\C(=O)CC(C)(C)CC1=Nc1ccccc1O,AC50,[1],"15.8 µM [falling, single point]"
O=C(Nc1ccc(Br)cc1)C1CCCN(C2=NS(=O)(=O)c3ccccc32)C1 (stereo not drawn),AC50,[1],"2.59 µM [rising, partial curve, poor fit]"
c1ccc([C@H]2CNCCN2CCc2cccc3ccccc23)cc1,AC50,[1],"16.4 µM [falling, partial curve, poor fit]"
CC1(C)CC(c2nc(-c3ccc([N+](=O)[O-])cc3)cs2)CCO1 (stereo not drawn),AC50,[1],"35.5 µM [rising, single point]"
COCCn1c(SCC(=O)N2CCc3ccccc3C2)nc2cc(Cl)ccc2c1=O,AC50,[1],"2.91 µM [falling, partial curve, poor fit]"

# A draw from above in order of length of the SMILES, smallest number first.
smiles,measurement,setting,value
COc1cc(-c2nc(-c3ccncc3)no2)cc(OC)c1OC,AC50,[1],"1.84 µM [rising, full curve, poor fit]"
COc1ccc(C(=O)C2CCCN(Cc3cccn3-c3ccccn3)C2)c(C)c1 (stereo not drawn),AC50,[1],"35.5 µM [falling, single point]"
CCCCCCCNC(=O)C1(CC2CC(c3ccccc3)=NO2)CCN(C(=O)OC(C)(C)C)CC1 (stereo not drawn),AC50,[1],"1.3 µM [rising, full curve]"
